Laboratory results published in patent publication CN113061185A.
Substitutions are numbered along the chain they refer to. Results are given in words; binding and its absence hold for the method and conditions named. Some binding calls cover weakened binding; strength is not graded here.

Protein sequences, listed by entry. Tags and fused reporters are not part of them.
UniProt Q02223: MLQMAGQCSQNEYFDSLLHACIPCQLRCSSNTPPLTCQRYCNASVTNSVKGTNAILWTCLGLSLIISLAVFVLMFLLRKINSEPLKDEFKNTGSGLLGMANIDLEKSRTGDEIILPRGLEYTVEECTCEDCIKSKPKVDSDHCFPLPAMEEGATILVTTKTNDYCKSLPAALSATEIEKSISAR

B1: B10.3 (affinity-matured mutant of B10) (scFv)
scFv: QVQLQQSGAEVKKPGSSVKVSCKASGGTFSKSAIQWVRQAPGQGLEWMGGVIPIFGTANYAQKFQGRVTITADESTSTAYMELSSLRSEDTAVYYCARGWYLDLWGRGTLVTVSSGGSSRSSSSGGGGSGGGGLPVLTQPPSASGTPGQRVTISCSGSSNNIGGYSVNWYQQFPGTAPKLLIYRNNQRPSGVPDRFSGSKSGASASLAISGLQSEDEADYYCAAWDDSVIGWLFGTGTQLTVL
B2: B10.4 (affinity-matured mutant of B10) (scFv)
scFv: B1 scFv with Q35M
B3: B10.5 (affinity-matured mutant of B10) (scFv)
scFv: B1 scFv with Q35H, N160S, E217V, V229L, W232Y, L233V
B4: B10.9 (affinity-matured mutant of B10) (scFv)
scFv: B1 scFv with V229E

The binders below were run against BCMA on the surface of BCMA-positive cell lines H929 (NCI-H929) and RPMI8226 (human) (UniProt Q02223) (assay: flow cytometry on H929 and RPMI8226 cells).

binding | Binder
binds | B1
binds | B2
binds | B3
binds | B4
